The list shows a part of the results.
How the values were obtained:
Test in all cases: log2 fold change, soluble protein after heating vs DMSO (PISA); higher = thermal stabilisation; K562 cells, 10 uM, 30 min; active = over 0.2 and 3.5 SD of the protein, either way, in both replicates (recomputed)
[1] = compound: CN1CCN(CCOc2cc(OC3CCOCC3)c3c(Nc4c(Cl)ccc5c4OCO5)ncnc3c2)CC1 [saracatinib]
Outline: (§1)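 Thermal stability values are relative to control samples and come from duplicates. They are expressed as log2 fold changes. For measurement, K562 cells (2×10^6 cells/mL) received 10 μM compound for 30 min, and aliquots were heated for 3 min over 48°C-58°C, pooled, and extracted at 4°C in PBS with 0.5% NP-40. Soluble protein, the supernatant after 21,000xg for 90 min, was quantified by TMTpro 16plex LC-MS/MS with equalised channel sums.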

Sequences of proteins named here, by UniProt entry; tags and fusion partners are left off. A change or cut given only in a name is not applied to a line headed by its entry.
UniProt Q93096: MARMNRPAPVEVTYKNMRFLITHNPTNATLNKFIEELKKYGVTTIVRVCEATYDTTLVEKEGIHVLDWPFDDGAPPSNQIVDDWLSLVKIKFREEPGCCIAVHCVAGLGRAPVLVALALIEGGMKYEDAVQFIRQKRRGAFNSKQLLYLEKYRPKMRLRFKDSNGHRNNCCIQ
UniProt P28066: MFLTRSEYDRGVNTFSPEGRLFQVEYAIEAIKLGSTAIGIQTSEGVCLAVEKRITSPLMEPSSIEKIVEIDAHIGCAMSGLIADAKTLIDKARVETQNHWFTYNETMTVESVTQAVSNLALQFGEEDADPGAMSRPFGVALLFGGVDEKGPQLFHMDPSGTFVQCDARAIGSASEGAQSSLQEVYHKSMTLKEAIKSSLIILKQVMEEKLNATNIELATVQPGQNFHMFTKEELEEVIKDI
UniProt O75832: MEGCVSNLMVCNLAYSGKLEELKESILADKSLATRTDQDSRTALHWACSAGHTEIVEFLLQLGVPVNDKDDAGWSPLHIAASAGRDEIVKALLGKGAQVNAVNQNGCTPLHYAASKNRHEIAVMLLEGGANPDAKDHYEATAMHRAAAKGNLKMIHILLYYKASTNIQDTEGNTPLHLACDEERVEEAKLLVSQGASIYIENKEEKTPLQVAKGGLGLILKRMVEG
UniProt O95456: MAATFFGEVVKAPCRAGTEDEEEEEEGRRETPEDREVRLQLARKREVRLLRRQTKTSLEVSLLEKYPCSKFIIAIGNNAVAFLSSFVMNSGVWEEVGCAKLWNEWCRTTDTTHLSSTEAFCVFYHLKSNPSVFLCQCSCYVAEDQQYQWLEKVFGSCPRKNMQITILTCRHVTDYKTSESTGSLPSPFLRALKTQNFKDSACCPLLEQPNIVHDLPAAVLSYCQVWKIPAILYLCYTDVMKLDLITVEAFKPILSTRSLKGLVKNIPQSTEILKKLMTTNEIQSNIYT
UniProt P15151: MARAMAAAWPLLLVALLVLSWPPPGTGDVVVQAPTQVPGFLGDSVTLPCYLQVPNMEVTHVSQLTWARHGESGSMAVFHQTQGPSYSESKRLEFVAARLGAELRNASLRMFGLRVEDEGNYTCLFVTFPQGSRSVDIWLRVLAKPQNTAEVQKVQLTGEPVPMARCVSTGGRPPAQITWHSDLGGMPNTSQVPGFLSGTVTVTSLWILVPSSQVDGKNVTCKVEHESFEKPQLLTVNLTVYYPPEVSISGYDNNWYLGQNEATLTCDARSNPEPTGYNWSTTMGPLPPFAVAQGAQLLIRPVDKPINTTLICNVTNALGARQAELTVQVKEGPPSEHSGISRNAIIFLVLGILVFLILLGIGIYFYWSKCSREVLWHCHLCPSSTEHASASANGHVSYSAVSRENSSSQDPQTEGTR
UniProt Q05397, whole entry, looked up: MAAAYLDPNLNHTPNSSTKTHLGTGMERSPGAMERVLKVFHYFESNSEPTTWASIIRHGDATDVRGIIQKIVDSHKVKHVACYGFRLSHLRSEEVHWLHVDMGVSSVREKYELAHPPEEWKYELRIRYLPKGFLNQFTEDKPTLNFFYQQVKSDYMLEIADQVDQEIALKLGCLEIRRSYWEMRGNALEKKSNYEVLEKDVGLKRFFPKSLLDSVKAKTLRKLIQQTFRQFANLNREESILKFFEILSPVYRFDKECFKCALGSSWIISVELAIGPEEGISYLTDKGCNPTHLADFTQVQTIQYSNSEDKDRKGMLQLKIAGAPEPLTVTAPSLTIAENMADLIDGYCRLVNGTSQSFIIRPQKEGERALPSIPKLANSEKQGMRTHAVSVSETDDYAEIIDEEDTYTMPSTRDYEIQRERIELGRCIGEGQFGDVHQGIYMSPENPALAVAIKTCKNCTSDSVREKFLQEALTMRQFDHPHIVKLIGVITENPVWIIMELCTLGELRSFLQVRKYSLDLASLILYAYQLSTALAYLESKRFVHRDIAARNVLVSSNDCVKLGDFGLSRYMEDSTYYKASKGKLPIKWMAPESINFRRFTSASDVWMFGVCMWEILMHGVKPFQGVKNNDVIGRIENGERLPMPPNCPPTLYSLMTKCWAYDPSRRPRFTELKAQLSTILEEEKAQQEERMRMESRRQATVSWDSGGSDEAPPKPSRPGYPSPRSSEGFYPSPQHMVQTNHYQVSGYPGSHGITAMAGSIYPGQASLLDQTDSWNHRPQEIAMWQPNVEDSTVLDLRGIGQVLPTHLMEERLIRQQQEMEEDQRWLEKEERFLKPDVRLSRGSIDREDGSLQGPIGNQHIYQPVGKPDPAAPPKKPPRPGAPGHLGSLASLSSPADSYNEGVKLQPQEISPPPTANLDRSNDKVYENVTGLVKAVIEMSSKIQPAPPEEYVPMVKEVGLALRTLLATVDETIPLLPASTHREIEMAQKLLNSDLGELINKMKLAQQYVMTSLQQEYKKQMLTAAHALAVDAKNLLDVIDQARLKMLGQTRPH
UniProt P62333, whole entry, looked up: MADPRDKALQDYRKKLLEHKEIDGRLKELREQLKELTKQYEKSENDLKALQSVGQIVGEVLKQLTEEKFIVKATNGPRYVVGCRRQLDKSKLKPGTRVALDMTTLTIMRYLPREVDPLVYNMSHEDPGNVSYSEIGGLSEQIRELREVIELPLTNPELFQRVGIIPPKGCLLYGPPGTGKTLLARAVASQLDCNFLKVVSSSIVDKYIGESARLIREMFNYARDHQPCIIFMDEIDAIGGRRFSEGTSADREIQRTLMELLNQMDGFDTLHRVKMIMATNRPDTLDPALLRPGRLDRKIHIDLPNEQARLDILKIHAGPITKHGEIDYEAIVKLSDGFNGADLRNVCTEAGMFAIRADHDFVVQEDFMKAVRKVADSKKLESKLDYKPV
UniProt Q13308: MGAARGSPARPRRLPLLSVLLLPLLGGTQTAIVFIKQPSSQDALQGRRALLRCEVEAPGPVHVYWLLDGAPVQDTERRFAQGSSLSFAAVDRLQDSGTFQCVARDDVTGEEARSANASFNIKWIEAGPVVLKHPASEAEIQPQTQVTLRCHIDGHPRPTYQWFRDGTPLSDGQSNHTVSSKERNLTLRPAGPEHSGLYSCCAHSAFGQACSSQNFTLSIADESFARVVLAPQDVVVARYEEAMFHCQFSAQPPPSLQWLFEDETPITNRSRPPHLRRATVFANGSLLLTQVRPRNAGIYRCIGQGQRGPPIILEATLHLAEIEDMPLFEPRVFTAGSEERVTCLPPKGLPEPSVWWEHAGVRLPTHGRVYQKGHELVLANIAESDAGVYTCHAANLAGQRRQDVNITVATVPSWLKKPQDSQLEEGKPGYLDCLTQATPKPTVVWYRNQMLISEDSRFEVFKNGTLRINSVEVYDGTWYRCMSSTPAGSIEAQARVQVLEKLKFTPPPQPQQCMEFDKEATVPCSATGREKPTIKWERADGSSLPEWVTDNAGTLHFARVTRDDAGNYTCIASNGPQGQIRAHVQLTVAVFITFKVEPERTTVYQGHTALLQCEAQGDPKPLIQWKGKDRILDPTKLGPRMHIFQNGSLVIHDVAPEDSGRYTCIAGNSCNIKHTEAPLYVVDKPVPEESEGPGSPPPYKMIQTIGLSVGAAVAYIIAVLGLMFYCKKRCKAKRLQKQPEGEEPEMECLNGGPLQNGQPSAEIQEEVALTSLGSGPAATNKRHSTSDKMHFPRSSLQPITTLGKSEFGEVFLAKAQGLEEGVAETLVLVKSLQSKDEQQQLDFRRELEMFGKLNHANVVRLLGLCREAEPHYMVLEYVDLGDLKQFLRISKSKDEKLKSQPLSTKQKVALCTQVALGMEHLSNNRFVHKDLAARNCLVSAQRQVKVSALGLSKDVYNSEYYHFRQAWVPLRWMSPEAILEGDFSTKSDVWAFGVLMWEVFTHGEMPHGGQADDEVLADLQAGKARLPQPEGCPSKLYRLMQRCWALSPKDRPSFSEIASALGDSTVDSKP
UniProt Q15185: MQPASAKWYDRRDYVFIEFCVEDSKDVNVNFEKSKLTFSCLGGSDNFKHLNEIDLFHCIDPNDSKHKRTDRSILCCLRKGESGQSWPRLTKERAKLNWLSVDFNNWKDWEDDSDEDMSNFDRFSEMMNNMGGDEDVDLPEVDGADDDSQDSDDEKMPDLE
UniProt P53801: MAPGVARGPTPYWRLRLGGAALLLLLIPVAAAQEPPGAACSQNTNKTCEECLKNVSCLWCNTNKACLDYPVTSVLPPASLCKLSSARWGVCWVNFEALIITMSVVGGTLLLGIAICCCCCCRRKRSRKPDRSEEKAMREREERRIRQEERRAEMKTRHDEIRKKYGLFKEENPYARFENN
UniProt Q9P2B2: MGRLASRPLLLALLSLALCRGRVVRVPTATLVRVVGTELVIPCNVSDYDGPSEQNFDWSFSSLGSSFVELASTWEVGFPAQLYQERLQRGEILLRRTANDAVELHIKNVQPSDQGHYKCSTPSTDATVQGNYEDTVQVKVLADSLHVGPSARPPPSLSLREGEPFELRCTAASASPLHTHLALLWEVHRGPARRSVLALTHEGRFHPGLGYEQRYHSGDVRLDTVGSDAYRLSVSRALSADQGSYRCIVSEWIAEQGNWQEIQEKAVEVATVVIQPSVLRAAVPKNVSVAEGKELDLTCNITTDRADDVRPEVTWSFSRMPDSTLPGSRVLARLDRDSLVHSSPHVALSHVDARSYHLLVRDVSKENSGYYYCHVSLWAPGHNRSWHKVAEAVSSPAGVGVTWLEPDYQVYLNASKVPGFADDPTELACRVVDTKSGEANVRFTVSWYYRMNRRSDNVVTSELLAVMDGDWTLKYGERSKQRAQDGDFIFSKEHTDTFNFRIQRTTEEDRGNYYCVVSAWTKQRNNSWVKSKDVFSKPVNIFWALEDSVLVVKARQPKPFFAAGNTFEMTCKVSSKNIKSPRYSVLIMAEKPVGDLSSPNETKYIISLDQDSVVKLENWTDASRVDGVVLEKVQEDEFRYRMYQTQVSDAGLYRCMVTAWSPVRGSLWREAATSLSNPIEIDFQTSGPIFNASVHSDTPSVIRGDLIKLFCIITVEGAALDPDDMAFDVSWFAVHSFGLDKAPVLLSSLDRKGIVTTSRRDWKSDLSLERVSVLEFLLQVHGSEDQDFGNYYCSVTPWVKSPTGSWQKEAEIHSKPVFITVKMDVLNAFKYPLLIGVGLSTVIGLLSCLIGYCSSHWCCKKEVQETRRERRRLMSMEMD
UniProt P32322: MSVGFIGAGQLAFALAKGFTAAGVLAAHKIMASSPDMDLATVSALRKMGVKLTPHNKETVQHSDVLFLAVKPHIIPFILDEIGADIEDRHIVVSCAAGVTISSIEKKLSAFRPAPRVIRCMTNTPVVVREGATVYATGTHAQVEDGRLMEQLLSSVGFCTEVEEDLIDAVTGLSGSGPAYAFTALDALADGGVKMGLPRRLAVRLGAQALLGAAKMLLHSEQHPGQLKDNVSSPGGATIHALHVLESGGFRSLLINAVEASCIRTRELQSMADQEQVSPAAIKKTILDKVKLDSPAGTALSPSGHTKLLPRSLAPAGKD
UniProt Q9UHX1: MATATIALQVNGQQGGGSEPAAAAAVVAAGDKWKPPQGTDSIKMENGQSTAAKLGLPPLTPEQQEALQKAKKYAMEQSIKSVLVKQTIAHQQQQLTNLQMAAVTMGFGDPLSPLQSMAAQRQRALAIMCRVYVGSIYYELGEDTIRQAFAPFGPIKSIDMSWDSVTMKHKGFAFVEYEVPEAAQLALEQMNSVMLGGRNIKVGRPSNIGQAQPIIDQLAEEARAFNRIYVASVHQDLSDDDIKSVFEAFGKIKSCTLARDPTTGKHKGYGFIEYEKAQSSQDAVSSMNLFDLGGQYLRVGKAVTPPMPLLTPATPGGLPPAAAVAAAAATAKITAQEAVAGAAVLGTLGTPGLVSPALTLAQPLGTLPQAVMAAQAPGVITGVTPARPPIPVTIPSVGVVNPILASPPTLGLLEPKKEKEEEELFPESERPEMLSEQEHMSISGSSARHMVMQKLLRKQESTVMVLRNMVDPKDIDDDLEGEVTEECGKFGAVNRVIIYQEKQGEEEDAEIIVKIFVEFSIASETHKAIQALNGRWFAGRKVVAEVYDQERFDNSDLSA
UniProt P25788: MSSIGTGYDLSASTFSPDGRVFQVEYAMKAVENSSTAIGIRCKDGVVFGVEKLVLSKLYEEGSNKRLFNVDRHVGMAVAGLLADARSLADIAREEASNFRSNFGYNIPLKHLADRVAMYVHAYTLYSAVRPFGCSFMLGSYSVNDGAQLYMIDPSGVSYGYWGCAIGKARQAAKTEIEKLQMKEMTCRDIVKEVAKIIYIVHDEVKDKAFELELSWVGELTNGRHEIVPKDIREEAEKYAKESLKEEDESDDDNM
UniProt Q15008: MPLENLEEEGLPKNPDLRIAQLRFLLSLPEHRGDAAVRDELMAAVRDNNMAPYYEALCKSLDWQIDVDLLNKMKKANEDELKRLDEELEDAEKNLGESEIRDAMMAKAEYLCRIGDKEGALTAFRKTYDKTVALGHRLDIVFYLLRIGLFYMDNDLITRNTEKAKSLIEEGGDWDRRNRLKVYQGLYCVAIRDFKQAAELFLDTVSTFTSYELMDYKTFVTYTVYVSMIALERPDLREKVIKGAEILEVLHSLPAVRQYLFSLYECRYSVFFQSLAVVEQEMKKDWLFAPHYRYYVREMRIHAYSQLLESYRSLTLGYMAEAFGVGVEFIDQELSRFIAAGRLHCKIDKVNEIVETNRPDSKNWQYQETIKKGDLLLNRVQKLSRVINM

[2] = compound: CN1CCN(c2nc(C3=C(c4c[nH]c5ccccc45)C(=O)NC3=O)c3ccccc3n2)CC1 [sotrastaurin]
Outline: as §1

[3] = compound: CN1CC[C@H](c2c(O)cc(O)c3c(=O)cc(-c4ccccc4Cl)oc23)[C@H](O)C1 [alvocidib]
Outline: as §1

[4] = compound: CN1CCc2c(c3ccccc3n2Cc2ccc(C(=O)NO)cc2)C1 [Tubastatin A]
Outline: as §1

[5] = compound: CNC(=O)C1=CC=CC=C1NC2=NC(=NC=C2Cl)NC3=C(C=C(C=C3)N4CCOCC4)OC
Outline: as §1

[6] = compound: CNC(=O)c1ccc(Nc2ncc(C(F)(F)F)c(NCc3nccnc3N(C)S(C)(=O)=O)n2)cc1 [defactinib]
Outline: as §1

[7] = compound: CNCc1ccc(-c2[nH]c3cc(F)cc4c3c2CCNC4=O)cc1 [rucaparib]
Outline: as §1

[8] = compound: CNc1nc(-c2ccc3c(N)n[nH]c3c2)cc(N2C[C@@H](C(=O)NC3CCCCC3)CC[C@H]2C)n1
Outline: as §1

[9] = compound: COC(=O)N[C@@H](C)CNc1nccc(-c2cn(C(C)C)nc2-c2cc(Cl)cc(NS(C)(=O)=O)c2F)n1 [encorafenib]
Outline: as §1

[10] = compound: COC(=O)[C@H](CCSC)NC(=O)C1=C(C=C(C=C1)NC[C@H](CS)N)C2=CC=CC=C2
Outline: as §1

Row | Target | log2 fold change [1] | log2 fold change [2] | log2 fold change [3] | log2 fold change [4] | log2 fold change [5] | log2 fold change [6] | log2 fold change [7] | log2 fold change [8] | log2 fold change [9] | log2 fold change [10]
1 | PTP4A1 (UniProt Q93096) | inactive: -0.058 | inactive: 0.061 | active: -0.34 | inactive: 0.036 | inactive: 0.02 | active: -0.447 | inactive: -0.038 | inactive: 0.04 | inactive: -0.027 | inactive: 0.029
2 | PTPRA (UniProt P18433) | inactive: 0.014 | inactive: 0.029 | inactive: -0.093 | inactive: 0.007 | inactive: 0.036 | inactive: -0.06 | inactive: 0.052 | inactive: -0.038 | inactive: 0.026 | inactive: -0.017
3 | PYM1 (UniProt Q9BRP8) | inactive: -0.087 | inactive: 0.031 | inactive: 0.157 | inactive: 0.094 | inactive: -0.022 | inactive: 0.141 | inactive: 0.128 | inactive: 0.052 | inactive: 0.057 | inactive: 0.006
4 | PSMA5 (UniProt P28066) | inactive: -0.011 | inactive: -0.033 | inactive: 0.104 | inactive: -0.018 | inactive: -0.014 | inactive: 0.024 | inactive: 0.007 | inactive: -0.009 | inactive: 0.003 | inactive: -0.017
5 | PUS3 (UniProt Q9BZE2) | inactive: 0.054 | inactive: -0.084 | inactive: -0.023 | inactive: 0.023 | inactive: -0.097 | inactive: -0.074 | inactive: -0.131 | inactive: -0.036 | inactive: 0.03 | inactive: -0.002
6 | PSRC1 (UniProt Q6PGN9) | inactive: -0.064 | inactive: 0.003 | inactive: 0.238 | inactive: 0.088 | inactive: 0.029 | inactive: 0.021 | inactive: 0.036 | inactive: -0.022 | inactive: -0.026 | inactive: -0.009
7 | PSMD10 (UniProt O75832) | inactive: 0.029 | inactive: -0.033 | inactive: -0.1 | inactive: 0.04 | inactive: 0.102 | inactive: -0.099 | inactive: 0.008 | inactive: 0.01 | inactive: 0.066 | inactive: -0.051
8 | PTCD3 (UniProt Q96EY7) | inactive: -0.029 | inactive: -0.095 | inactive: -0.035 | inactive: 0.034 | inactive: 0.036 | inactive: 0.038 | inactive: 0.076 | inactive: 0.127 | inactive: 0.058 | inactive: -0.047
9 | PSMA4 (UniProt P25789) | inactive: 0.002 | inactive: 0.004 | inactive: 0.081 | inactive: -0.034 | inactive: -0.004 | inactive: 0.074 | inactive: -0.006 | inactive: -0.016 | inactive: 0.025 | inactive: 0.02
10 | QDPR (UniProt P09417) | inactive: 0.094 | inactive: 0.023 | inactive: 0.084 | inactive: 0.06 | inactive: -0.068 | inactive: 0.005 | inactive: 0.003 | inactive: -0.104 | inactive: 0.004 | inactive: 0.06
11 | PSMG1 (UniProt O95456) | inactive: 0.078 | inactive: -0.005 | inactive: 0.004 | inactive: -0.072 | inactive: -0.026 | inactive: -0.003 | inactive: -0.032 | inactive: -0.015 | inactive: -0.019 | inactive: 0.041
12 | QRSL1 (UniProt Q9H0R6) | inactive: 0.033 | inactive: 0.003 | – | inactive: 0.01 | inactive: -0.023 | inactive: -0.105 | inactive: -0.047 | inactive: 0.038 | inactive: -0.017 | inactive: -0.033
13 | PVR (UniProt P15151) | inactive: 0.001 | inactive: 0.041 | inactive: -0.072 | inactive: 0.024 | – | inactive: -0.107 | inactive: -0.017 | inactive: 0.023 | inactive: -0.023 | inactive: -0.003
14 | PTK2 (UniProt Q05397) | inactive: 0.043 | inactive: 0.003 | inactive: -0.026 | inactive: -0.037 | inactive: 0.158 | inactive: 0.163 | inactive: -0.039 | inactive: -0.012 | inactive: -0.001 | inactive: -0.006
15 | PSMC6 (UniProt P62333) | inactive: -0.01 | inactive: 0.015 | – | inactive: -0.025 | inactive: -0.003 | inactive: 0.079 | inactive: 0.04 | inactive: 0.009 | inactive: 0.035 | inactive: 0.026
16 | PTK7 isoform 6 (UniProt Q13308) | inactive: 0.086 | inactive: -0.094 | inactive: -0.033 | inactive: 0.008 | inactive: -0.022 | inactive: -0.138 | inactive: 0.061 | inactive: 0.023 | inactive: 0.047 | inactive: -0.044

Row | Target | log2 fold change [1] | log2 fold change [2] | log2 fold change [3] | log2 fold change [4] | log2 fold change [5] | log2 fold change [6] | log2 fold change [7] | log2 fold change [8] | log2 fold change [9] | log2 fold change [10]
17 | PSME1 (UniProt Q06323) | inactive: -0.017 | inactive: 0.003 | inactive: -0.083 | inactive: -0.023 | inactive: 0.011 | inactive: -0.012 | inactive: -0.119 | inactive: -0.02 | inactive: 0.037 | inactive: -0.011
18 | PUM1 isoform 3 (UniProt Q14671) | inactive: -0.01 | inactive: -0.023 | – | inactive: 0.004 | inactive: -0.019 | inactive: -0.078 | inactive: 0.082 | inactive: -0.039 | inactive: -0.01 | inactive: 0.001
19 | QKI (UniProt Q96PU8) | inactive: -0.004 | inactive: -0.001 | – | inactive: 0.062 | inactive: -0.044 | active: -0.23 | inactive: -0.006 | inactive: -0.036 | inactive: -0.036 | inactive: 0.004
20 | PTGES3 (UniProt Q15185) | inactive: -0.023 | inactive: -0.057 | – | inactive: 0.023 | inactive: 0.088 | inactive: -0.205 | inactive: -0.059 | inactive: 0.034 | inactive: 0.032 | inactive: -0.068
21 | PXK (UniProt Q7Z7A4) | inactive: -0.023 | inactive: 0.004 | – | inactive: -0.033 | inactive: 0.03 | inactive: -0.025 | inactive: -0.027 | inactive: -0.007 | inactive: 0.08 | inactive: -0.048
22 | PTPN2 (UniProt P17706) | inactive: -0.001 | inactive: -0.022 | inactive: -0.088 | inactive: -0.054 | inactive: 0.02 | inactive: -0.139 | inactive: 0.017 | inactive: 0.052 | inactive: -0.012 | inactive: -0.056
23 | PTTG1IP (UniProt P53801) | inactive: 0.021 | inactive: -0.03 | – | inactive: -0.085 | inactive: 0.062 | inactive: -0.011 | inactive: 0.013 | inactive: -0.246 | inactive: -0.052 | inactive: 0.129
24 | PTGFRN (UniProt Q9P2B2) | inactive: 0.029 | inactive: 0.082 | – | inactive: 0 | inactive: -0.092 | inactive: -0.049 | inactive: -0.024 | inactive: 0.056 | inactive: -0.004 | inactive: 0.053
25 | PYCR1 isoform 3 (UniProt P32322) | inactive: 0.045 | inactive: -0.005 | inactive: -0.037 | inactive: -0.003 | inactive: 0.036 | – | inactive: 0.018 | inactive: 0 | inactive: -0.029 | inactive: -0.016
26 | PSMD2 (UniProt Q13200) | inactive: -0.047 | inactive: -0.029 | – | inactive: -0.014 | inactive: -0.033 | inactive: 0.061 | inactive: 0.035 | inactive: 0.01 | inactive: 0.051 | inactive: 0.012
27 | PUF60 (UniProt Q9UHX1) | inactive: 0 | inactive: -0.035 | – | inactive: 0.048 | inactive: -0.197 | inactive: -0.173 | inactive: -0.003 | inactive: -0.007 | inactive: 0.049 | inactive: -0.012
28 | PSMD9 (UniProt O00233) | inactive: -0.022 | inactive: 0.001 | – | inactive: 0.002 | inactive: -0.016 | inactive: -0.034 | inactive: -0.004 | inactive: -0.031 | inactive: -0.023 | inactive: 0.005
29 | PSMD8 (UniProt P48556) | inactive: -0.039 | inactive: -0.032 | – | inactive: 0.003 | inactive: -0.009 | inactive: 0.1 | inactive: 0.003 | inactive: 0.028 | inactive: 0.041 | inactive: 0.043
30 | PSMA3 (UniProt P25788) | inactive: 0.012 | inactive: 0.038 | – | inactive: -0.006 | inactive: 0.014 | inactive: 0.048 | inactive: -0.001 | inactive: 0.02 | inactive: 0.034 | inactive: 0
31 | PSMD6 (UniProt Q15008) | inactive: -0.044 | inactive: -0.035 | – | inactive: 0.025 | inactive: 0.013 | inactive: 0.046 | inactive: 0.051 | inactive: 0.062 | inactive: 0.056 | inactive: -0.021

Exported comma-delimited: entries from further up
Row,Target,log2 fold change [1],log2 fold change [2],log2 fold change [3],log2 fold change [4],log2 fold change [5],log2 fold change [6],log2 fold change [7],log2 fold change [8],log2 fold change [9],log2 fold change [10]
22,PTPN2 (UniProt P17706),inactive: -0.001,inactive: -0.022,inactive: -0.088,inactive: -0.054,inactive: 0.02,inactive: -0.139,inactive: 0.017,inactive: 0.052,inactive: -0.012,inactive: -0.056
31,PSMD6 (UniProt Q15008),inactive: -0.044,inactive: -0.035,–,inactive: 0.025,inactive: 0.013,inactive: 0.046,inactive: 0.051,inactive: 0.062,inactive: 0.056,inactive: -0.021

From the supplement of paper PMC10849652
